Our source for the T/C and survivor count values is PubChem BioAssay AID256 (DTP/NCI, 2004).

The list shows only some results of the screen, not a fair sample: it is rich in T/C values a quarter to a half above the control, in often repeated tests (any T/C) and in doses without a T/C. Further doses and runs are listed elsewhere. T/C is the treated group as % of the vehicle group. Some doses have a count of surviving animals in place of a T/C: the source holds a T/C of zero for them, seemingly a mark for toxic or unscored doses. Some survivor counts are full or nearly so, which does not show that the dose was tolerated: survival well below the control is almost never listed, so the zero probably covers shortened survival too. Survivors were counted at the toxicity check, usually on the fifth day, unless a day is given; later deaths do not show. Schedule codes are those of the source, taken here to give the interval after Q, in days (D) or hours (H), and the number of doses after X. Some doses were run more than once; the results are listed from low to high. Marks such as (2×) give the number of equal values in this list. Where survival is the endpoint, this PubChem deposit counts one and a half times the control or more as active, and values a quarter to a half above the control carry no call in these data; other NCI protocols may use other cut-offs. Some T/C values carry the count of animals alive at the toxicity check (mostly the fifth day); without a count, all were alive then.

The experiment relates to CD2F1 mice, L1210 leukemia ip, survival T/C. Kind of experiment: NCI In Vivo Anticancer Drug Screen. Data for tumor model L1210 Leukemia (intraperitoneal) in CD2F1 (CDF1) mice. The settings on record: higher T/C = longer survival. In a few lines: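 Each value reflects a quotient of treated over vehicle control outcomes in mice with a transplanted tumor.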
[1] abbreviates: T/C endpoint: median survival time, dose: 200.0 mg/kg/injection, schedule: Q01DX009 (ip), vehicle: distilled water + Tween-80.
[2] abbreviates: T/C endpoint: mean survival time, dose: 100.0 mg/kg/injection, schedule: Q04DX003 (ip), vehicle: saline with Tween-80.
Where [3] appears, read: T/C endpoint: mean survival time, dose: 200.0 mg/kg/injection, schedule: Q04DX003 (ip), vehicle: saline with Tween-80.
[4] abbreviates: T/C endpoint: mean survival time, dose: 400.0 mg/kg/injection, schedule: Q04DX003 (ip), vehicle: saline with Tween-80.
[5] abbreviates: T/C endpoint: median survival time, dose: 400.0 mg/kg/injection, schedule: Q01DX005 (ip), vehicle: saline with Tween-80.
The mark [6] stands for this setting: T/C endpoint: mean survival time, dose: 400.0 mg/kg/injection, schedule: Q01DX001 (ip), vehicle: saline with Tween-80.

As for `COC1C(CO)OC(n2c3c(Cl)cccc3c3c4c(c5c6cccc(Cl)c6[nH]c5c32)C(=O)NC4=O)C(O)C1O` (stereo not given), the T/C (T/C endpoint: median survival time, dose: 25.0 mg/kg/injection, schedule: Q01DX009 (ip), vehicle: distilled water + Tween-80) was 131 % of control; the T/C (T/C endpoint: median survival time, dose: 50.0 mg/kg/injection, schedule: Q01DX009 (ip), vehicle: distilled water + Tween-80) was 125 % of control; the T/C (T/C endpoint: median survival time, dose: 100.0 mg/kg/injection, schedule: Q01DX009 (ip), vehicle: distilled water + Tween-80) was 138 % of control; the T/C under setting [1] is 136 % of control; the T/C (T/C endpoint: median survival time, dose: 277.8 mg/kg/injection, schedule: Q01DX009 (ip), vehicle: distilled water + Tween-80) is 125 % of control [5 of 6 alive].

As for `NC(=S)N/N=C\c1ccccn1`, the T/C reads like this: (T/C endpoint: mean survival time, dose: 8.3 mg/kg/injection, schedule: Q01DX009 (ip), vehicle: saline with Tween-80) 147 % of control; (T/C endpoint: mean survival time, dose: 12.5 mg/kg/injection, schedule: Q01DX009 (ip), vehicle: saline with Tween-80) 127 % of control. Further, the survivor count is listed as 2 of 6 (T/C endpoint: mean survival time, dose: 18.75 mg/kg/injection, schedule: Q01DX009 (ip), vehicle: saline with Tween-80); 1 of 6 under setting [2]; 0 of 6 under setting [3]; 0 of 6 under setting [4].

For the molecule `CN1NC=Nc2c(SCc3ccccc3)ncnc21`, the survivor count by setting is: (T/C endpoint: mean survival time, dose: 150.0 mg/kg/injection, schedule: Q01DX001 (ip), vehicle: other) 0 of 6; (T/C endpoint: mean survival time, dose: 300.0 mg/kg/injection, schedule: Q01DX001 (ip), vehicle: other) 0 of 6.

As to `CNc1ncn(-c2c(C)cccc2C)c(=O)n1`, the survivor count reads like this: (T/C endpoint: median survival time, dose: 200.0 mg/kg/injection, schedule: Q01DX005 (ip), vehicle: saline with Tween-80) 3 of 6; under setting [5], 5 of 6; (T/C endpoint: median survival time, dose: 800.0 mg/kg/injection, schedule: Q01DX005 (ip), vehicle: saline with Tween-80) 0 of 6 (2×) and 2 of 6. Moreover, under setting [5], the T/C is 130 [5 of 6 alive] and 139 % of control.

For `Nc1ccc(O)c(N)c1`, the survivor count is 0 of 6 (T/C endpoint: mean survival time, dose: 100.0 mg/kg/injection, schedule: Q01DX001 (ip), vehicle: saline); 0 of 6 (T/C endpoint: mean survival time, dose: 200.0 mg/kg/injection, schedule: Q01DX001 (ip), vehicle: saline); 0 of 6 (T/C endpoint: mean survival time, dose: 400.0 mg/kg/injection, schedule: Q01DX001 (ip), vehicle: saline).

For `COc1cc2c(cc1OC)CCN=C2`, the survivor count (T/C endpoint: mean survival time, dose: 200.0 mg/kg/injection, schedule: Q01DX009 (ip), vehicle: saline) is reported as 0 of 3.

As for `COc1cccc2c1C(=O)c1c(O)c3c(c(O)c1C2=O)C[C@@](O)(C(=O)COC(=O)Cc1ccccc1)C[C@@H]3OC1CC(N)C(O)C(C)O1` (stereo not given in full), the T/C was 138 % of control (T/C endpoint: mean survival time, dose: 0.5 mg/kg/injection, schedule: Q01DX009 (ip), vehicle: saline with Tween-80); 146 % of control (T/C endpoint: mean survival time, dose: 1.0 mg/kg/injection, schedule: Q01DX009 (ip), vehicle: saline with Tween-80, evaluated on day 20); 134 % of control (T/C endpoint: mean survival time, dose: 1.0 mg/kg/injection, schedule: Q01DX009 (ip), vehicle: saline with Tween-80, evaluated on day 60); 146 % of control (T/C endpoint: mean survival time, dose: 2.0 mg/kg/injection, schedule: Q01DX009 (ip), vehicle: saline with Tween-80, evaluated on day 20); 148 % of control (T/C endpoint: mean survival time, dose: 2.0 mg/kg/injection, schedule: Q01DX009 (ip), vehicle: saline with Tween-80, evaluated on day 60); 129 % of control (T/C endpoint: mean survival time, dose: 2.5 mg/kg/injection, schedule: Q01DX001 (ip), vehicle: saline with Tween-80). In addition, the T/C is 135 % of control (T/C endpoint: mean survival time, dose: 2.5 mg/kg/injection, schedule: Q04DX003 (ip), vehicle: saline with Tween-80); 143 % of control (T/C endpoint: mean survival time, dose: 4.0 mg/kg/injection, schedule: Q01DX009 (ip), vehicle: saline with Tween-80); 131 % of control (T/C endpoint: mean survival time, dose: 5.0 mg/kg/injection, schedule: Q01DX001 (ip), vehicle: saline with Tween-80); 140 % of control (T/C endpoint: mean survival time, dose: 5.0 mg/kg/injection, schedule: Q04DX003 (ip), vehicle: saline with Tween-80); 134 % of control (T/C endpoint: mean survival time, dose: 10.0 mg/kg/injection, schedule: Q01DX001 (ip), vehicle: saline with Tween-80). Further, the survivor count (T/C endpoint: mean survival time, dose: 16.0 mg/kg/injection, schedule: Q01DX009 (ip), vehicle: saline with Tween-80) is listed as 9 of 10; the survivor count (T/C endpoint: mean survival time, dose: 40.0 mg/kg/injection, schedule: Q01DX001 (ip), vehicle: saline with Tween-80) is given as 4 of 10; the survivor count (T/C endpoint: mean survival time, dose: 40.0 mg/kg/injection, schedule: Q04DX003 (ip), vehicle: saline with Tween-80) is 10 of 10.

As for `Nc1nc(N)c(-c2ccc(Cl)cc2)c(CBr)n1`, the survivor count is, setting by setting: (T/C endpoint: mean survival time, dose: 200.0 mg/kg/injection, schedule: Q01DX001 (ip), vehicle: saline with Tween-80) 0 of 3; under setting [6], 0 of 3.

For the molecule `O=C(NO)c1cccc(O)c1O`, the T/C was 125 % of control (T/C endpoint: median survival time, dose: 89.78 mg/kg/injection, schedule: Q01DX009 (ip), vehicle: distilled water + Tween-80); 127 and 140 % of control (T/C endpoint: median survival time, dose: 134.0 mg/kg/injection, schedule: Q01DX009 (ip), vehicle: distilled water + Tween-80); 144 % of control under setting [1]. Further, the survivor count (T/C endpoint: median survival time, dose: 300.0 mg/kg/injection, schedule: Q01DX009 (ip), vehicle: distilled water + Tween-80) is recorded as 3 of 6.

For `N=C(N)c1ccc(N=Nc2c(O)ccc3cc(O)ccc23)cc1`, for the setting “T/C endpoint: median survival time, dose: 200.0 mg/kg/injection, schedule: Q01DX005 (ip), vehicle: Klucel (hydroxypropylcellulose) (HPC)”, the survivor count is 4 of 6.

With `C[NH-].C[NH-].[Cl][Pt+2][Cl]`, the survivor count reads like this: (T/C endpoint: mean survival time, dose: 20.0 mg/kg/injection, schedule: Q04DX003 (ip), vehicle: water) 10 of 10; (T/C endpoint: mean survival time, dose: 40.0 mg/kg/injection, schedule: Q04DX003 (ip), vehicle: water) 7 of 10.

For the molecule `C[C@]1(O)CC[C@H]2[C@@H]3CCC4=CC(=O)CC[C@]4(C)[C@@]3(Cl)[C@@H](O)C[C@@]21C`, the T/C (T/C endpoint: mean survival time, dose: 400.0 mg/kg/injection, schedule: Q04DX003 (ip), vehicle: saline sonified) was 129 % of control.

For the molecule `O=C1c2ccccc2C(=O)N1CCS(=O)(=O)Cl`, the survivor count is given as 0 of 3 (T/C endpoint: mean survival time, dose: 200.0 mg/kg/injection, schedule: Q01DX009 (ip), vehicle: saline with Tween-80) and 1 of 6 under setting [6].

For `Nc1n[n+](-c2ccc(Cl)cc2)no1`, the survivor count (T/C endpoint: mean survival time, dose: 100.0 mg/kg/injection, schedule: Q01DX009 (ip), vehicle: water) is reported as 1 of 6.

In the case of `CN=NN(C)C(=O)NC`, the T/C runs as follows: (T/C endpoint: median survival time, dose: 21.6 mg/kg/injection, schedule: Q01DX005 (ip), vehicle: saline) 132 % of control; (T/C endpoint: median survival time, dose: 25.0 mg/kg/injection, schedule: Q01DX005 (ip), vehicle: saline) 125 % of control; (T/C endpoint: median survival time, dose: 36.0 mg/kg/injection, schedule: Q01DX005 (ip), vehicle: saline) 146 % of control; (T/C endpoint: median survival time, dose: 50.0 mg/kg/injection, schedule: Q01DX005 (ip), vehicle: saline) 139 % of control; (T/C endpoint: median survival time, dose: 100.0 mg/kg/injection, schedule: Q01DX005 (ip), vehicle: saline) 137 % of control. Under “T/C endpoint: median survival time, dose: 166.67 mg/kg/injection, schedule: Q01DX005 (ip), vehicle: saline”, the survivor count is listed as 6 of 6.

`S=C=NCc1cccc(CN=C=S)c1`: the survivor count (T/C endpoint: mean survival time, dose: 6.0 mg/kg/injection, schedule: Q01DX009 (ip), vehicle: saline with Tween-80) is listed as 3 of 6.

Take `CC(=O)CC(O)(C(F)(F)F)C(F)(F)F`: the survivor count under setting [4] is reported as 1 of 6.

For `Cc1cc2ccccc2[n+](C)c1-c1ccccc1Cl` (tested in a mixture with another compound), the survivor count (T/C endpoint: mean survival time, dose: 20.0 mg/kg/injection, schedule: Q01DX009 (ip), vehicle: saline) is on record as 3 of 6; the survivor count under setting [2] was 0 of 6; the survivor count under setting [3] is 0 of 6; the survivor count under setting [4] is recorded as 0 of 6.
